Data as given in PubChem BioAssay AID686937 (Drosophila RNAi Screening Center, 2013)
Aim: 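Knock-downs that reduce output of a secreted reporter enzyme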 (primary screen). Cell system: Drosophila S2 cells expressing secreted horseradish peroxidase. Reagent: long dsRNA against Drosophila genes. Timing: about 5.5 days (5 days dsRNA, then 12 h reporter induction). Treatment: reporter expression induced after 5 days of dsRNA, read 12 h later; inducer not stated. Read-out: 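Chemiluminescent measurement of peroxidase in the medium 12 h after reporter induction, following 5 days of dsRNA, given as a z-score per plate; higher means more secretion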. Direction: z-score: higher = more reporter secreted into medium.
In all, the deposit lists about 23,000 reagents; shown is a random part of those that have a named target and a result. 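Reduced-secretion tags in replicate 1 do not always agree with the z-scores; no criterion for assigning the tags was given.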 Further read-outs or replicates are left out here. Not stated in the record: the amount of reagent.

| gene knocked down | DRSC id | z-score, replicate 1 | z-score, replicate 2 |
| --- | --- | --- | --- |
| tai (taiman) | DRSC02207 | -0.21 | -0.53 |
| tai (taiman) | DRSC02673 | 0.62 | 0.46 |
| sr (stripe) | DRSC13284 | 0.35 | -0.02 |
| sr (stripe) | DRSC17067 | -3.43 | -2.84 |
| JMJD5 (Jumonji domain containing 5) | DRSC08372 | 0.22 | 0.09 |
| Scgbeta (Sarcoglycan beta) | DRSC15854 | 0.13 | 0.62 |
| fkh (fork head) | DRSC16949 | 0.33 | 0.42 |
| CG30195 | DRSC04155 | 0.2 | 0.3 |
| spidey | DRSC17932 | 0.11 | 0.23 |
| mi (minus) | DRSC04498 | 0.12 | 0.25 |
| RpS18 (Ribosomal protein S18) | DRSC07540 | -3.82 | -1.77 |
| RhoGEF64C (Rho guanine nucleotide exchange factor at 64C) | DRSC08318 | 0.35 | 0.45 |
| RhoGEF64C (Rho guanine nucleotide exchange factor at 64C) | DRSC08319 | 0.5 | 0.54 |
| CG5439 | DRSC02861 | 0.43 | 0.31 |
| pav (pavarotti) | DRSC08730 | -1.47 | -0.54 |
| Hsepi (Heparan sulfate C5-epimerase) | DRSC04986 | 0.34 | 0.35 |
| endos (endosulfine) | DRSC10658 | 0.59 | 0.18 |
| S-Lap5 (Sperm-Leucylaminopeptidase 5) | DRSC06732 | 0.46 | 0.26 |
| ECSIT | DRSC12348 | 0.1 | 0.42 |
| DIP-beta (Dpr-interacting protein beta) | DRSC20461 | -0.26 | -0.7 |
| DIP-beta (Dpr-interacting protein beta) | DRSC20489 | 0.48 | -0.13 |
| DIP-beta (Dpr-interacting protein beta) | DRSC20490 | 0.42 | 0.26 |
| DIP-beta (Dpr-interacting protein beta) | DRSC20505 | 0.59 | 0.04 |
| CG33463 | DRSC22915 | 0.11 | -0.22 |
| CG12964 | DRSC06266 | -0.58 | -0.5 |
| CG42709 | DRSC10277 | 0.32 | 0.34 |
| Fpps (Farnesyl pyrophosphate synthase) | DRSC07429 | 0.41 | 0.37 |
| capu (cappuccino) | DRSC00208 | 0.19 | 0.23 |
| capu (cappuccino) | DRSC00209 | -0.68 | -0.07 |
| capu (cappuccino) | DRSC00434 | 0.58 | 0.21 |
| capu (cappuccino) | DRSC00807 | 0.24 | 0.46 |
| prim (primacord) | DRSC06575 | 0.44 | 0.3 |
| CG2811 | DRSC04318 | 0.45 | -0.01 |
| CG33679 | DRSC01436 | 0.36 | 0.32 |
| Mvd (Mevalonate diphosphate decarboxylase) | DRSC20096 | 0.12 | 0.06 |
| Taf12L (TBP-associated factor 30kD subunit alpha-2) | DRSC00467 | 0.46 | 0.45 |
| CG10628 | DRSC02080 | 0.23 | 0.14 |
| egl (egalitarian) | DRSC04682 | -0.03 | 0.29 |
| CG31301 | DRSC22164 | -0.54 | 0.43 |
| Cyp4g15 (Cytochrome P450 4g15) | DRSC20240 | 0.36 | 0.14 |
| Kal1 (Kallmann syndrome 1) | DRSC15983 | 0.2 | 0.22 |
| CG1416 | DRSC03706 | 0.05 | 0.31 |
| CG8176 | DRSC16394 | 0.35 | 0.4 |
| Gapdh1 (Glyceraldehyde 3 phosphate dehydrogenase 1) | DRSC07433 | -0.03 | -0.03 |
| mask (multiple ankyrin repeats single KH domain) | DRSC15370 | -0.33 | -1.21 |
| mask (multiple ankyrin repeats single KH domain) | DRSC16005 | -0.69 | -0.31 |
| mask (multiple ankyrin repeats single KH domain) | DRSC16018 | -1.1 | -1.12 |
| NitFhit (Nitrilase and fragile histidine triad fusion protein) | DRSC08680 | 0.37 | 0.27 |
| SmF (Small ribonucleoprotein particle protein SmF) | DRSC07397 | -2.5 | -4.14 |

Taken from above.
Under “z-score, replicate 1”, DIP-beta (Dpr-interacting protein beta) [DRSC20505] has 0.59
Entry of Mvd (Mevalonate diphosphate decarboxylase) [DRSC20096] in “z-score, replicate 2”: 0.06
For “z-score, replicate 1”, DIP-beta (Dpr-interacting protein beta) [DRSC20490] has 0.42
tai (taiman) [DRSC02673], z-score, replicate 2: 0.46
capu (cappuccino) [DRSC00807], z-score, replicate 2 = 0.46
JMJD5 (Jumonji domain containing 5) [DRSC08372], z-score, replicate 2 → 0.09

The list goes on:
| gene knocked down | DRSC id | z-score, replicate 1 | z-score, replicate 2 |
| --- | --- | --- | --- |
| CG18190 | DRSC06714 | 0.31 | 0.41 |
| CR15821 (pseudo) | DRSC08481 | 0.38 | 0.31 |
| Adss (Adenylosuccinate synthetase) | DRSC14162 | 0.25 | 0.4 |
| CG13108 | DRSC02206 | -0.05 | -0.02 |
| Efhc1.1 (EF-hand domain containing 1.1) | DRSC20135 | 0.27 | 0.19 |
| CG34202 | DRSC05907 | 1.2 | 0.86 |
| CG15375 | DRSC18045 | 0.59 | 0.29 |
| ppk8 (pickpocket 8) | DRSC17269 | 0.1 | 0.57 |
| EndoB (Endophilin B) | DRSC07345 | -0.78 | -0.27 |
| Tango6 (Transport and Golgi organization 6) | DRSC02671 | -1.96 | -1.44 |
| CG31106 | DRSC14655 | 0.19 | 0.06 |
| CG31698 | DRSC22226 | 0.49 | 0.33 |
| Pp1-Y2 (Protein phosphatase 1, Y-linked 2) | DRSC21608 | -0.31 | -0.38 |
| CG15126 | DRSC06548 | 0 | 0.13 |
| Nfs1 (Nfs1 cysteine desulfurase) | DRSC02154 | -0.02 | 0.3 |
| CG10298 | DRSC12522 | 0.11 | 0.34 |
| CG9920 | DRSC16578 | 0.35 | 0.29 |
| CG31294 | DRSC22217 | -0.23 | -0.07 |
| CG14752 | DRSC06488 | 0.24 | 0.28 |
| svp (seven up) | DRSC12899 | 0.28 | 0.55 |
| svp (seven up) | DRSC15311 | -4.98 | -4.53 |
| svp (seven up) | DRSC17075 | 0.35 | 0.32 |
| O-fut1 (O-fucosyltransferase 1) | DRSC06138 | 0.32 | 0.3 |
| CG15824 | DRSC00473 | 0.12 | 0.31 |
| mRpL32 (mitochondrial ribosomal protein L32) | DRSC14479 | -0.48 | -1.34 |
| chas (chascon) | DRSC19508 | -0.05 | 0.12 |
| chas (chascon) | DRSC19509 | 0.37 | 0.27 |
| CG5567 | DRSC10517 | 0.4 | 0.27 |
| hydra | DRSC20497 | 0.17 | 0.32 |
| CG42346 | DRSC20622 | 0.74 | 0.42 |
| CG42346 | DRSC20644 | 0.28 | 0.44 |
| Fip1 (Factor interacting with poly(A) polymerase 1) | DRSC12147 | -0.22 | -0.29 |
| sage (salivary gland-expressed bHLH) | DRSC14580 | -0.5 | -0.07 |
